Assay results reported in article PMC9392749.

Amino acid sequences for entries named in this document (tags omitted). Residues count along the entry.
UniProt Q06416: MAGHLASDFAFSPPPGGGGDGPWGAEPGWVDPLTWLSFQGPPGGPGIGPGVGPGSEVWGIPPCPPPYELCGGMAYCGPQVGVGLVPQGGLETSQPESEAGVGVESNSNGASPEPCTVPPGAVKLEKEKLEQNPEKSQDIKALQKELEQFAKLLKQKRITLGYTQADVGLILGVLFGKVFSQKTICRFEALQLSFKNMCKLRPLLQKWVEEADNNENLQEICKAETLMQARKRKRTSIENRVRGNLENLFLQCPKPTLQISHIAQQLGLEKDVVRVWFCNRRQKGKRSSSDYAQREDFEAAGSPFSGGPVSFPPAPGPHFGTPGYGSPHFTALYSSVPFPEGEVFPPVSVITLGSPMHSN
UniProt O95602: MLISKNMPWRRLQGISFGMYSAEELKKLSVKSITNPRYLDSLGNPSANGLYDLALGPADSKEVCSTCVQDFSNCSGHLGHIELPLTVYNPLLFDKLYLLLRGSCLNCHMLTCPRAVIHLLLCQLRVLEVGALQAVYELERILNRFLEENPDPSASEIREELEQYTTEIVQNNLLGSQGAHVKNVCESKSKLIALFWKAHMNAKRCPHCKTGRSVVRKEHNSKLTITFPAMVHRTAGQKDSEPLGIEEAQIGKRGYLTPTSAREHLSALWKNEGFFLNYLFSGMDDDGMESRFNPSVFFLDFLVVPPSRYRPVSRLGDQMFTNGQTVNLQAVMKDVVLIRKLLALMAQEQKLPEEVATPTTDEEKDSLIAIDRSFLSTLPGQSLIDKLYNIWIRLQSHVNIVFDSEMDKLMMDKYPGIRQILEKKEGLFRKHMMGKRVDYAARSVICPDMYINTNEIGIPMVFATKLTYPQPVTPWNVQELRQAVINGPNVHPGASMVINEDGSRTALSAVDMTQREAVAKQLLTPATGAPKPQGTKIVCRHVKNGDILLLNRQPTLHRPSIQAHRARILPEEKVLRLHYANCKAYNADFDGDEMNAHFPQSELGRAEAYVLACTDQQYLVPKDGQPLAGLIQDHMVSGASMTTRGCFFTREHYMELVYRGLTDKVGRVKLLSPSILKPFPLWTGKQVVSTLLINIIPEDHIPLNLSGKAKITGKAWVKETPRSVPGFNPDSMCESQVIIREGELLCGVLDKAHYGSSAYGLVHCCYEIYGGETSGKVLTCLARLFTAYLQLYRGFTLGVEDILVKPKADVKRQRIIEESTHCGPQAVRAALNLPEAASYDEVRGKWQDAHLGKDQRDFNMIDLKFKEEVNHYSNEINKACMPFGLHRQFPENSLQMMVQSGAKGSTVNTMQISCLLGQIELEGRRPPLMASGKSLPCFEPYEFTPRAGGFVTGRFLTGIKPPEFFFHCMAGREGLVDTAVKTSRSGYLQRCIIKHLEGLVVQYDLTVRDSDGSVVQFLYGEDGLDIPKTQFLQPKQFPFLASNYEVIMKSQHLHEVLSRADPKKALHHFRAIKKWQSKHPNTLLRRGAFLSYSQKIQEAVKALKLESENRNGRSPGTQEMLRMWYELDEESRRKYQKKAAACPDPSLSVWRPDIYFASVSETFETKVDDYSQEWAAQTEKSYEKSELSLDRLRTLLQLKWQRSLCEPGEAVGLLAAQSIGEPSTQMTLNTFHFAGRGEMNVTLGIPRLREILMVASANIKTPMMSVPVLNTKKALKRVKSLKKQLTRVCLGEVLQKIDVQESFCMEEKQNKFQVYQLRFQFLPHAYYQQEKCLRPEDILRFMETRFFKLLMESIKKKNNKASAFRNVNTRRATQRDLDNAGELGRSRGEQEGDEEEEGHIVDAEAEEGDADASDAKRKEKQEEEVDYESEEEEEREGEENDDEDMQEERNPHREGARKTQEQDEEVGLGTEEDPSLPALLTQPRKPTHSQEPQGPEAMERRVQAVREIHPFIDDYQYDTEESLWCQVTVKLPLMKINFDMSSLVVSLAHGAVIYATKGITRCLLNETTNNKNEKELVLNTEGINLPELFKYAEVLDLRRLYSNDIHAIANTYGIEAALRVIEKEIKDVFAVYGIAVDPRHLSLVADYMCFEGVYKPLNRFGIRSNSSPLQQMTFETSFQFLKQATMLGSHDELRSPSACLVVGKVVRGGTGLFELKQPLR
UniProt Q13671: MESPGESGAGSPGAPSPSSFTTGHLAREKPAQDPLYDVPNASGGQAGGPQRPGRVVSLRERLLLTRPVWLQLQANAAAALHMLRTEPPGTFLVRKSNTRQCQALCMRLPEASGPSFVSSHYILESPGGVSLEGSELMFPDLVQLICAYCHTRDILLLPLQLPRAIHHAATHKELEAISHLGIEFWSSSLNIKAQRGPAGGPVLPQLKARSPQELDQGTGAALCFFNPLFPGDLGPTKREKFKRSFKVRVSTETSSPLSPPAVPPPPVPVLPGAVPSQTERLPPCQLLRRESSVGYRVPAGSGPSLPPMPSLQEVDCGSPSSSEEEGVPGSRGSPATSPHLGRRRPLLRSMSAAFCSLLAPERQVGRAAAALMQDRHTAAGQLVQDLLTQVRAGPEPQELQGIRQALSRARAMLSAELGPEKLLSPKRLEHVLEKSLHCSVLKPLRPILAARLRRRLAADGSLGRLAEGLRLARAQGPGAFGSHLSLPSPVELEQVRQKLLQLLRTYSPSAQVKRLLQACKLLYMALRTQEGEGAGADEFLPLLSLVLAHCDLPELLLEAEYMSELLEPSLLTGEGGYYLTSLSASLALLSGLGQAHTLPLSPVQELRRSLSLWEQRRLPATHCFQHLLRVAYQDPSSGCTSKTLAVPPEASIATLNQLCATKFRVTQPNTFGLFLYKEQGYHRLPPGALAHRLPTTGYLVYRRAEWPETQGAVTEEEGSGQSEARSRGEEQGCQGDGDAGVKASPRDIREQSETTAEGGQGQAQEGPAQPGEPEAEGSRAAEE
UniProt Q92673, residues 82-2214: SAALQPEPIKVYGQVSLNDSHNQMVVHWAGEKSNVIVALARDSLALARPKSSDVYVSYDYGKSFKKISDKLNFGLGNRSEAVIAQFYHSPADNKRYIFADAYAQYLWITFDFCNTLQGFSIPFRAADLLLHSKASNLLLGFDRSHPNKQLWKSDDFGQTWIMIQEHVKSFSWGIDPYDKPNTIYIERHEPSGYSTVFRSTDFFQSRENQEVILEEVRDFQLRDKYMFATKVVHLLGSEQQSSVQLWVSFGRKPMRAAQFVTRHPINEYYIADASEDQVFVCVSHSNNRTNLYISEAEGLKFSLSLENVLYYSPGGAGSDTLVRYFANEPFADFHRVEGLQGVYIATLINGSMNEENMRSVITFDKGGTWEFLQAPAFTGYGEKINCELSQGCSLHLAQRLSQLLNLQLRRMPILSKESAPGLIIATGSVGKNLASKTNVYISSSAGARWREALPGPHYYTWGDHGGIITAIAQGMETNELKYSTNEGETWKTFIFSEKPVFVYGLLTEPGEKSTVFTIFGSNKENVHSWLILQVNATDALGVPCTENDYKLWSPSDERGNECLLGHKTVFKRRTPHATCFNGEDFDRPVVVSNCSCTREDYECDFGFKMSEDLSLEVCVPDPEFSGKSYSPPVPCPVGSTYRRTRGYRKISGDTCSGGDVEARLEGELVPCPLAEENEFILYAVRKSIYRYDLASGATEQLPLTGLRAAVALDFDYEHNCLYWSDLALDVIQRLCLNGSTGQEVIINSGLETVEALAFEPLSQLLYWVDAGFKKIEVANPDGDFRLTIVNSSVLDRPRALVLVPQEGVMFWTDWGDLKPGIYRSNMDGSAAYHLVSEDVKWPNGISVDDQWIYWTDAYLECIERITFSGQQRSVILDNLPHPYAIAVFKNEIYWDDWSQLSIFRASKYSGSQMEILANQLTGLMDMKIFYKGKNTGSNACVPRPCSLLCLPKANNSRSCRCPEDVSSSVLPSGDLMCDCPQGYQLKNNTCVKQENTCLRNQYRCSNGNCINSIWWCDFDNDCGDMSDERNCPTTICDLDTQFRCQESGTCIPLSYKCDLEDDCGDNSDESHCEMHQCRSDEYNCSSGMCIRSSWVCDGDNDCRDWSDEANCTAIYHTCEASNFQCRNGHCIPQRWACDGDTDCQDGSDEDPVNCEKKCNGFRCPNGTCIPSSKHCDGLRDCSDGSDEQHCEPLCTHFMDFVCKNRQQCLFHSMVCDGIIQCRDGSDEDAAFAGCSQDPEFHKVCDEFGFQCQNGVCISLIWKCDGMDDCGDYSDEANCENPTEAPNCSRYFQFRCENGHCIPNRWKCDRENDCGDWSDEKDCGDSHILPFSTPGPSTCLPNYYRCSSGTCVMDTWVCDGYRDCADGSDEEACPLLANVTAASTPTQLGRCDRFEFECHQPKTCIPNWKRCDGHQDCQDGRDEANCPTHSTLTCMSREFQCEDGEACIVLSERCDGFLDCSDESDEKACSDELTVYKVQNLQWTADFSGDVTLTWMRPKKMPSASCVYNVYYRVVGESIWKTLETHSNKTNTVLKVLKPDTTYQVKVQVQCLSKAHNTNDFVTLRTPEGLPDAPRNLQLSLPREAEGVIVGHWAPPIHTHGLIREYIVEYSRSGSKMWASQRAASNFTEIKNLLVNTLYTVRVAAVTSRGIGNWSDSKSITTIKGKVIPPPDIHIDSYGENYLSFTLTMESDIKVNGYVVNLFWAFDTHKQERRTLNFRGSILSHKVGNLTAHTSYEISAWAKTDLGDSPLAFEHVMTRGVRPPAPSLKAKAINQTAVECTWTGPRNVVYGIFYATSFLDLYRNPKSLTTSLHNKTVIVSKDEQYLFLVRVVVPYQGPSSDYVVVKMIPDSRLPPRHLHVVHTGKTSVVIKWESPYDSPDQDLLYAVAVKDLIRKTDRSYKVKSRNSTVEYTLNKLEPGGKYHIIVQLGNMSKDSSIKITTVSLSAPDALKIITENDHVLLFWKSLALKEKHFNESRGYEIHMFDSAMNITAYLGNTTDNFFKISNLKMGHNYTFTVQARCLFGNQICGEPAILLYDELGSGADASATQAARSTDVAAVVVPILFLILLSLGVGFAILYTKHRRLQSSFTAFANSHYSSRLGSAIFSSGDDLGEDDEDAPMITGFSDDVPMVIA
UniProt O43156: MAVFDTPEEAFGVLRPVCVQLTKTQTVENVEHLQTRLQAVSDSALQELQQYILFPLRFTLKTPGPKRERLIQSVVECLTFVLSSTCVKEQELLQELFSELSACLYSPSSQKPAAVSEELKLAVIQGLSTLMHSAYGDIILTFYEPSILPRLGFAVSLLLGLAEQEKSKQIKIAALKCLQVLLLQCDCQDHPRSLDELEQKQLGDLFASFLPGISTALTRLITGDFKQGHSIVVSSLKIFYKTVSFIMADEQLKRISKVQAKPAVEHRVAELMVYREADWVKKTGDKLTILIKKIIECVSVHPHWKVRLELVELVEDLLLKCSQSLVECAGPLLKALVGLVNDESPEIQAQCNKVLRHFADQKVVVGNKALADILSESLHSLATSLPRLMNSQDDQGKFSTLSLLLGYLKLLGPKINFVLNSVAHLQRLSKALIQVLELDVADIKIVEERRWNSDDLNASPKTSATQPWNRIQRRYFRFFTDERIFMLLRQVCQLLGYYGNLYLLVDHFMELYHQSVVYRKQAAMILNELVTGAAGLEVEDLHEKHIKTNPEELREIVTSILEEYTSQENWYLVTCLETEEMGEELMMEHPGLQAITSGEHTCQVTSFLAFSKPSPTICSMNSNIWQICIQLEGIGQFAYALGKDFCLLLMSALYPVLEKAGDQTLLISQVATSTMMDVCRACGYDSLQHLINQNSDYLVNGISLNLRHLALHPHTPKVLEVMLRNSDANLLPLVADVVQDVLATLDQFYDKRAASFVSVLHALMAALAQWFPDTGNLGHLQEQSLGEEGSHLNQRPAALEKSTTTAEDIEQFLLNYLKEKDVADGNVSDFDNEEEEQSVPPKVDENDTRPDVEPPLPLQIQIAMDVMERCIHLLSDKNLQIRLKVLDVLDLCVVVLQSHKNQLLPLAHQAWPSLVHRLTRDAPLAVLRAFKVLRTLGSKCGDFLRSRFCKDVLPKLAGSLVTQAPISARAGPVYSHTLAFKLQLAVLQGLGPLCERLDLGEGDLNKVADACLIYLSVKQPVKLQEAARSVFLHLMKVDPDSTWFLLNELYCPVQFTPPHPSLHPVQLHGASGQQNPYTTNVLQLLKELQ

B1: LPCAT4 (enzyme, UniProt Q643R3 1-524)
chain: MSQGSPGDWAPLDPTPGPPASPNPFVHELHLSRLQRVKFCLLGALLAPIRVLLAFIVLFLLWPFAWLQVAGLSEEQLQEPITGWRKTVCHNGVLGLSRLLFFLLGFLRIRVRGQRASRLQAPVLVAAPHSTFFDPIVLLPCDLPKVVSRAENLSVPVIGALLRFNQAILVSRHDPASRRRVVEEVRRRATSGGKWPQVLFFPEGTCSNKKALLKFKPGAFIAGVPVQPVLIRYPNSLDTTSWAWRGPGVLKVLWLTASQPCSIVDVEFLPVYHPSPEESRDPTLYANNVQRVMAQALGIPATECEFVGSLPVIVVGRLKVALEPQLWELGKVLRKAGLSAGYVDAGAEPGRSRMISQEEFARQLQLSDPQTVAGAFGYFQQDTKGLVDFRDVALALAALDGGRSLEELTRLAFELFAEEQAEGPNRLLYKDGFSTILHLLLGSPHPAATALHAELCQAGSSQGLSLCQFQNFSLHDPLYGKLFSTYLRPPHTSRGTSQTPNASSPGNPTALANGTVQAPKQKGD
B2: PLEKHA5 (protein, UniProt Q9HAU0 1-1116)
chain: MAADLNLEWISLPRSWTYGITRGGRVFFINEEAKSTTWLHPVTGEAVVTGHRRQSTDLPTGWEEAYTFEGARYYINHNERKVTCKHPVTGQPSQDNCIFVVNEQTVATMTSEEKKERPISMINEASNYNVTSDYAVHPMSPVGRTSRASKKVHNFGKRSNSIKRNPNAPVVRRGWLYKQDSTGMKLWKKRWFVLSDLCLFYYRDEKEEGILGSILLPSFQIALLTSEDHINRKYAFKAAHPNMRTYYFCTDTGKEMELWMKAMLDAALVQTEPVKRVDKITSENAPTKETNNIPNHRVLIKPEIQNNQKNKEMSKIEEKKALEAEKYGFQKDGQDRPLTKINSVKLNSLPSEYESGSACPAQTVHYRPINLSSSENKIVNVSLADLRGGNRPNTGPLYTEADRVIQRTNSMQQLEQWIKIQKGRGHEEETRGVISYQTLPRNMPSHRAQIMARYPEGYRTLPRNSKTRPESICSVTPSTHDKTLGPGAEEKRRSMRDDTMWQLYEWQQRQFYNKQSTLPRHSTLSSPKTMVNISDQTMHSIPTSPSHGSIAAYQGYSPQRTYRSEVSSPIQRGDVTIDRRHRAHHPKHVYVPDRRSVPAGLTLQSVSPQSLQGKTLSQDEGRGTLYKYRPEEVDIDAKLSRLCEQDKVVHALEEKLQQLHKEKYTLEQALLSASQEIEMHADNPAAIQTVVLQRDDLQNGLLSTCRELSRATAELERAWREYDKLEYDVTVTRNQMQEQLDHLGEVQTESAGIQRAQIQKELWRIQDVMEGLSKHKQQRGTTEIGMIGSKPFSTVKYKNEGPDYRLYKSEPELTTVAEVDESNGEEKSEPVSEIETSVVKGSHFPVGVVPPRAKSPTPESSTIASYVTLRKTKKMMDLRTERPRSAVEQLCLAESTRPRMTVEEQMERIRRHQQACLREKKKGLNVIGASDQSPLQSPSNLRDNPFRTTQTRRRDDKELDTAIRENDVKPDHETPATEIVQLKETEPQNVDFSKELKKTENISYEMLFEPEPNGVNSVEMMDKERNKDKMPEDVTFSPQDETQTANHKPEEHPEENTKNSVDEQEETVISYESTPEVSRGNQTMAVKSLSPSPESSASPVPSTQPQLTEGSHFMCV
B3: FKBP5 (protein, UniProt Q13451 1-457)
chain: MTTDEGAKNNEESPTATVAEQGEDITSKKDRGVLKIVKRVGNGEETPMIGDKVYVHYKGKLSNGKKFDSSHDRNEPFVFSLGKGQVIKAWDIGVATMKKGEICHLLCKPEYAYGSAGSLPKIPSNATLFFEIELLDFKGEDLFEDGGIIRRTKRKGEGYSNPNEGATVEIHLEGRCGGRMFDCRDVAFTVGEGEDHDIPIGIDKALEKMQREEQCILYLGPRYGFGEAGKPKFGIEPNAELIYEVTLKSFEKAKESWEMDTKEKLEQAAIVKEKGTVYFKGGKYMQAVIQYGKIVSWLEMEYGLSEKESKASESFLLAAFLNLAMCYLKLREYTKAVECCDKALGLDSANEKGLYRRGEAQLLMNEFESAKGDFEKVLEVNPQNKAARLQISMCQKKAKEHNERDRRIYANMFKKFAEQDAKEEANKAMGKKTSEGVTNEKGTDSQAMEEEKPEGHV
B4: CEMIP (protein, UniProt Q8WUJ3 31-1361)
chain: TVAAGCPDQSPELQPWNPGHDQDHHVHIGQGKTLLLTSSATVYSIHISEGGKLVIKDHDEPIVLRTRHILIDNGGELHAGSALCPFQGNFTIILYGRADEGIQPDPYYGLKYIGVGKGGALELHGQKKLSWTFLNKTLHPGGMAEGGYFFERSWGHRGVIVHVIDPKSGTVIHSDRFDTYRSKKESERLVQYLNAVPDGRILSVAVNDEGSRNLDDMARKAMTKLGSKHFLHLGFRHPWSFLTVKGNPSSSVEDHIEYHGHRGSAAARVFKLFQTEHGEYFNVSLSSEWVQDVEWTEWFDHDKVSQTKGGEKISDLWKAHPGKICNRPIDIQATTMDGVNLSTEVVYKKGQDYRFACYDRGRACRSYRVRFLCGKPVRPKLTVTIDTNVNSTILNLEDNVQSWKPGDTLVIASTDYSMYQAEEFQVLPCRSCAPNQVKVAGKPMYLHIGEEIDGVDMRAEVGLLSRNIIVMGEMEDKCYPYRNHICNFFDFDTFGGHIKFALGFKAAHLEGTELKHMGQQLVGQYPIHFHLAGDVDERGGYDPPTYIRDLSIHHTFSRCVTVHGSNGLLIKDVVGYNSLGHCFFTEDGPEERNTFDHCLGLLVKSGTLLPSDRDSKMCKMITEDSYPGYIPKPRQDCNAVSTFWMANPNNNLINCAAAGSEETGFWFIFHHVPTGPSVGMYSPGYSEHIPLGKFYNNRAHSNYRAGMIIDNGVKTTEASAKDKRPFLSIISARYSPHQDADPLKPREPAIIRHFIAYKNQDHGAWLRGGDVWLDSCRFADNGIGLTLASGGTFPYDDGSKQEIKNSLFVGESGNVGTEMMDNRIWGPGGLDHSGRTLPIGQNFPIRGIQLYDGPINIQNCTFRKFVALEGRHTSALAFRLNNAWQSCPHNNVTGIAFEDVPITSRVFFGEPGPWFNQLDMDGDKTSVFHDVDGSVSEYPGSYLTKNDNWLVRHPDCINVPDWRGAICSGCYAQMYIQAYKTSNLRMKIIKNDFPSHPLYLEGALTRSTHYQQYQPVVTLQKGYTIHWDQTAPAELAIWLINFNKGDWIRVGLCYPRGTTFSILSDVHNRLLKQTSKTGVFVRTLQMDKVEQSYPGRSHYYWDEDSGLLFLKLKAQNEREKFAFCSMKGCERIKIKALIPKNAGVSDCTATAYPKFTERAVVDVPMPKKLFGSQLKTKDHFLEVKMESSKQHFFHLWNDFAYIEVDGKKYPSSEDGIQVVVIDGNQGRVVSHTSFRNSILQGIPWQLFNYVATIPDNSIVLMASKGRYVSRGPWTRVLEKLGADRGLKLKEQMAFVGFKGSFRPIWVTLDTEDHKAKIFQVVPIPVVKKKKL

Biological target: HA-tagged POU5F1B (human) (UniProt Q06416)
Test: affinity purification with mass spectrometry; HA-tagged POU5F1B (control: HA-GFP) overexpressed in LS1034 and HT29 cells; lysis in HNN buffer (0.5% NP40, 50 mM HEPES pH 7.5, 150 mM NaCl), lysate fixed with 3 mM DSP, benzonase; anti-HA agarose beads 2 h at 4 °C; elution with 0.2 M glycine pH 2.5; LC-MS/MS; hits: fold change over controls >5 and adjusted P < 0.01

Question: Which binding does the source give for “MST1R (from UniProt Q04912 25-1400) (receptor)” here?
Answer: binds

Question: With “POLR1A (from UniProt O95602 1-1720) (enzyme)” as the molecule, how does the binding read?
Answer: binds

Question: How did the binding turn out when “POLR1B (from UniProt Q9H9Y6 1-1135) (enzyme)” was run?
Answer: binds

Question: For “PRKCA (from UniProt P17252 1-672) (enzyme)”, which binding is on record?
Answer: binds

Question: RIN1 (from UniProt Q13671 1-783) was tested. Which binding did it give?
Answer: binds

Question: Which binding does the source give for SORL1 (from UniProt Q92673 82-2214) here?
Answer: binds

Question: TTI1 (from UniProt O43156 1-1089) was tested. Which binding did it give?
Answer: binds

Question: Which binding does the source give for “receptor tyrosine kinase (RTK) ERBB2 (from UniProt P04626 23-1255)” here?
Answer: binds

Question: Which binding does the source give for B1 here?
Answer: binds

Question: B2 was tested. Which binding did it give?
Answer: binds

Question: B3 was tested. Which binding did it give?
Answer: binds

Question: How did the binding turn out when B4 was run?
Answer: binds

No constants are given. Whether binding was seen depends on the method and setting. Binding seen in cells or lysates may run through a third protein. These calls come from enrichment with a bait or labelling near it, and not all partners need be listed.
